# Data published in publication PMC3741148.
# Amino acid sequences for entries named in this document (tags omitted). Residues count along the entry.
# UniProt P09727, residues 18-215: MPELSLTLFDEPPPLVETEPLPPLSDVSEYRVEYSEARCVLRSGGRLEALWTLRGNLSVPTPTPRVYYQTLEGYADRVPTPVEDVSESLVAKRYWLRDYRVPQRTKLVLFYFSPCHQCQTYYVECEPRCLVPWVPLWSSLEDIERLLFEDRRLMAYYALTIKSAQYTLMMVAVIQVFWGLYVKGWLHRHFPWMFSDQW
# Results are given in words; binding and its absence hold for the method and conditions named. In cells and extracts the contact can be indirect. Some results given as binding are weak or reduced against the parent protein; the word gives no strength.
# Target: T1, Derlin-1 (endogenous) (human (endogenous in U373MG and HeLa)) (UniProt Q9BUN8)
# T1 sequence: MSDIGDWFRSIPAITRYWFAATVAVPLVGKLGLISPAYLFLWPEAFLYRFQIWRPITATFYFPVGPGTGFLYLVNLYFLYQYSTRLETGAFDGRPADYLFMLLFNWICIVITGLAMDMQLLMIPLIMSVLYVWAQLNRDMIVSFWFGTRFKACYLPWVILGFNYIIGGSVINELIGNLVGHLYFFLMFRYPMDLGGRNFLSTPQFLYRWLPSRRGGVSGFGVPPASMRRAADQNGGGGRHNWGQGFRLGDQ
# Assay: co-IP; sequential co-immunoprecipitation from U373MG-US11 cells labelled with 35S-methionine/cysteine for 1 hr, lysed in 1% digitonin; first precipitation with the antibody to the bait, eluate in SDS/DTT, diluted 10-fold in 1% NP-40, second precipitation, SDS-PAGE, autoradiography
substance,measurement,value
Human cytomegalovirus (HCMV) US11 (from UniProt P09727 18-215),binding,binds
